This is one part of the list.
Compound: Cc1cc(ccc1-c1ccccc1)C(=O)N1CCCN(CC1)C(=O)CCl [compound 10]
Test: probe-labelled cysteine peptide fold change vs DMSO (competition) (log2 fold change); higher = less target engagement (more negative = stronger competition)
Settings: THP-1, incubation time: 4 h
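Note: competitive profiling in live THP-1 cells: cysteine peptides tagged with an iodoacetamide desthiobiotin (IA-DTB) probe, intensity after compound treatment relative to DMSO-treated cells.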

Chains of the proteins cited; added tags and fusions are not shown. Lines headed by an entry give the natural chain unless they say otherwise; changes in a name come on top.
UniProt P12081: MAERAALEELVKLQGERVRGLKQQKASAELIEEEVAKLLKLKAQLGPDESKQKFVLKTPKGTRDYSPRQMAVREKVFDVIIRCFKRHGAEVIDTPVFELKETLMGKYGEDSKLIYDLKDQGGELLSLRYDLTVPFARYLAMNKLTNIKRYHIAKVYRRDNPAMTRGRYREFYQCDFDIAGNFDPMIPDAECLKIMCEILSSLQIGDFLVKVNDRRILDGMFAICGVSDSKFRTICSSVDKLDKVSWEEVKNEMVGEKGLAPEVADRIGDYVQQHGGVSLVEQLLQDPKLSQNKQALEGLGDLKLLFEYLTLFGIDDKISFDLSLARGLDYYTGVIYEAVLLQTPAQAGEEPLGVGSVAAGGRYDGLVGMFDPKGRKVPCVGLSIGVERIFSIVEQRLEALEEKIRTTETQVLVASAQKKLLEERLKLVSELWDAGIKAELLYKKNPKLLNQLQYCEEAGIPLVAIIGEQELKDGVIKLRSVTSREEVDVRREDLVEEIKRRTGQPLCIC
UniProt P15170, whole entry, looked up: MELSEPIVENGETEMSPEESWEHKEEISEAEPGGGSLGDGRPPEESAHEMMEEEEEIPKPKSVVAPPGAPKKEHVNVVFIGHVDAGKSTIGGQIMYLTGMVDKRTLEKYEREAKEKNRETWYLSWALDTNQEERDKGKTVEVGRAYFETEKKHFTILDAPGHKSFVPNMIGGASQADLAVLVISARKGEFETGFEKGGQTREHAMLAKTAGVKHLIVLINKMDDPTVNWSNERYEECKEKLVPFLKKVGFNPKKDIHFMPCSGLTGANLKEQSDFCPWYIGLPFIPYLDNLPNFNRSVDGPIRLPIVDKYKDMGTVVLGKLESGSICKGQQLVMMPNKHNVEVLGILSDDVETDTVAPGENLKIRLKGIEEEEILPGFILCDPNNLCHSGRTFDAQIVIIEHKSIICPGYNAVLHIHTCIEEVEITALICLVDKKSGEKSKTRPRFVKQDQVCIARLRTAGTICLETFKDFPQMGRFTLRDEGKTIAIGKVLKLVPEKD
UniProt P57764: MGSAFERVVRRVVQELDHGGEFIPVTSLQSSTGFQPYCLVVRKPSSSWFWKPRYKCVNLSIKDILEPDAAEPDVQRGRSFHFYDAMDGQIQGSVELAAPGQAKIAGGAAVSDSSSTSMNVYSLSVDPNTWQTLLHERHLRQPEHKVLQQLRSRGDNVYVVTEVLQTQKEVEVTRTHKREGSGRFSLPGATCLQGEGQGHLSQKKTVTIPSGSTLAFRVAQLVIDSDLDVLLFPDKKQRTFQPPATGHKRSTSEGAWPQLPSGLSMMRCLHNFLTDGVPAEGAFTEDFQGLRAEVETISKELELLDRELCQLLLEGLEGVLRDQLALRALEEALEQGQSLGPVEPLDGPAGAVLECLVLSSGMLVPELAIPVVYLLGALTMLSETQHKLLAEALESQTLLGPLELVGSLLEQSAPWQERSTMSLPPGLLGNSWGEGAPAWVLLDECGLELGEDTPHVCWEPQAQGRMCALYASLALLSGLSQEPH
UniProt P21266: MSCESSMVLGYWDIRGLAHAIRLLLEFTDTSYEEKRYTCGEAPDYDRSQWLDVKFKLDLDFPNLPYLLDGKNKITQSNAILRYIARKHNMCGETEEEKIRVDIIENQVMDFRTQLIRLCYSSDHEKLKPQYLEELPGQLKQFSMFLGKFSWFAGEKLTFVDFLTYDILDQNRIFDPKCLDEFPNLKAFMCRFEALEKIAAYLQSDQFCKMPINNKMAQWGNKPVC
UniProt Q12789: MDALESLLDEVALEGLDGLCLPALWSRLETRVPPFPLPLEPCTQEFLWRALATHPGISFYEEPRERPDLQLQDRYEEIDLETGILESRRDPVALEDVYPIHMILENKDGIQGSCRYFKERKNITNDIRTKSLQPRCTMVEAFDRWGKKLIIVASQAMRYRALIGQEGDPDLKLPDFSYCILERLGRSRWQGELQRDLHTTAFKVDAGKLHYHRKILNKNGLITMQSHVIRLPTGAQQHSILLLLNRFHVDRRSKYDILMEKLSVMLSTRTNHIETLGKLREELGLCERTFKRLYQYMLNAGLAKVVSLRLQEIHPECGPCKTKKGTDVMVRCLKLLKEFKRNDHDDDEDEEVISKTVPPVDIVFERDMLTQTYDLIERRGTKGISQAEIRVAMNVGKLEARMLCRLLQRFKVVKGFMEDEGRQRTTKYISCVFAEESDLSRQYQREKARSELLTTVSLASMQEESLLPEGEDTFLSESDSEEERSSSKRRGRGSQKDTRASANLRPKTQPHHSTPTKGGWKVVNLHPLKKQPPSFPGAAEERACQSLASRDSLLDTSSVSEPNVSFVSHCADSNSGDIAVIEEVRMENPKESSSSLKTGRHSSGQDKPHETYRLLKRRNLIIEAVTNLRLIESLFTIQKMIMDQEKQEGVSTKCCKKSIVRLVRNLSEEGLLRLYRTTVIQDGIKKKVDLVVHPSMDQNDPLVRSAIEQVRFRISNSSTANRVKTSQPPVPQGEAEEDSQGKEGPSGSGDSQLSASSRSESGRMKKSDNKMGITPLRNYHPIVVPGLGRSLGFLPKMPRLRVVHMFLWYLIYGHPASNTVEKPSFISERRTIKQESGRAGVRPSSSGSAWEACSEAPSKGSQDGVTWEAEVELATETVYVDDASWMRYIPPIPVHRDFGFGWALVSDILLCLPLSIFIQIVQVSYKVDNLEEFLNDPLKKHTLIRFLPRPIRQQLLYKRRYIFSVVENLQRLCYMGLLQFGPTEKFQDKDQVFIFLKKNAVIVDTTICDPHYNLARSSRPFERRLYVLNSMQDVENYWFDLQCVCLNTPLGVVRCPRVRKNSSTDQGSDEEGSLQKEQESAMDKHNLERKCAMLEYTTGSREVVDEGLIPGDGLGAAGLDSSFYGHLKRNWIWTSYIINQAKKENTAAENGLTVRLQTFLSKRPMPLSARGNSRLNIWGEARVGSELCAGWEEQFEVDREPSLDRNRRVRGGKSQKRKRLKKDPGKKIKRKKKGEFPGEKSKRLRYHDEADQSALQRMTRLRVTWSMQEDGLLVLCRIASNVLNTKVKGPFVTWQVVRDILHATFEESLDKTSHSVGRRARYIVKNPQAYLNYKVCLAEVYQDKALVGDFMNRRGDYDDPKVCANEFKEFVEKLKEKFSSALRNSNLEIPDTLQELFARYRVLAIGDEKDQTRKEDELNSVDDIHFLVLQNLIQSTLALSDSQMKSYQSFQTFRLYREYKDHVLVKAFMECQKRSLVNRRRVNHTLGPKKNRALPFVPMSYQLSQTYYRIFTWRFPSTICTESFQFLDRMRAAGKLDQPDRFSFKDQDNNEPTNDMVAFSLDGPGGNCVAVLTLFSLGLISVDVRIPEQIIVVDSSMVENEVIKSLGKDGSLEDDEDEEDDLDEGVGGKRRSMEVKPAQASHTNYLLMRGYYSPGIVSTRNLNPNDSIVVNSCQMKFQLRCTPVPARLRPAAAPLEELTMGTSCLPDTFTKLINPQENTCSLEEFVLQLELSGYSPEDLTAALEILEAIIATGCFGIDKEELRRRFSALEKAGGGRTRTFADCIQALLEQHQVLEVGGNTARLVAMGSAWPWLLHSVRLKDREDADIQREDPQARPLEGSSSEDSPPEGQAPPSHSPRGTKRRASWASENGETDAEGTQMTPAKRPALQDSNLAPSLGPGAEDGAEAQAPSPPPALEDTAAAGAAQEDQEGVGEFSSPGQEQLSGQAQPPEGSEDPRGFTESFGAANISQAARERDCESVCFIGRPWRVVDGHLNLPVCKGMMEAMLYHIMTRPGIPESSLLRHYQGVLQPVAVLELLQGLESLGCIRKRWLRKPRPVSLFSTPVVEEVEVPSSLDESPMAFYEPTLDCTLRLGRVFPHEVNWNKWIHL
UniProt Q6PII5: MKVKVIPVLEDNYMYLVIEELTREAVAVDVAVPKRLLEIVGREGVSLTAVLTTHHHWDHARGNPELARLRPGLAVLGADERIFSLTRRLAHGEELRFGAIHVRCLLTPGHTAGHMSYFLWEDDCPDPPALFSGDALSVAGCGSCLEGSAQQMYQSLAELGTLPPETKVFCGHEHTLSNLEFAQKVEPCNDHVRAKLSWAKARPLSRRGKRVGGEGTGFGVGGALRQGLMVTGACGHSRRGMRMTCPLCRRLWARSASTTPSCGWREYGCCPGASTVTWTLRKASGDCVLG
UniProt Q9Y450, whole entry, looked up: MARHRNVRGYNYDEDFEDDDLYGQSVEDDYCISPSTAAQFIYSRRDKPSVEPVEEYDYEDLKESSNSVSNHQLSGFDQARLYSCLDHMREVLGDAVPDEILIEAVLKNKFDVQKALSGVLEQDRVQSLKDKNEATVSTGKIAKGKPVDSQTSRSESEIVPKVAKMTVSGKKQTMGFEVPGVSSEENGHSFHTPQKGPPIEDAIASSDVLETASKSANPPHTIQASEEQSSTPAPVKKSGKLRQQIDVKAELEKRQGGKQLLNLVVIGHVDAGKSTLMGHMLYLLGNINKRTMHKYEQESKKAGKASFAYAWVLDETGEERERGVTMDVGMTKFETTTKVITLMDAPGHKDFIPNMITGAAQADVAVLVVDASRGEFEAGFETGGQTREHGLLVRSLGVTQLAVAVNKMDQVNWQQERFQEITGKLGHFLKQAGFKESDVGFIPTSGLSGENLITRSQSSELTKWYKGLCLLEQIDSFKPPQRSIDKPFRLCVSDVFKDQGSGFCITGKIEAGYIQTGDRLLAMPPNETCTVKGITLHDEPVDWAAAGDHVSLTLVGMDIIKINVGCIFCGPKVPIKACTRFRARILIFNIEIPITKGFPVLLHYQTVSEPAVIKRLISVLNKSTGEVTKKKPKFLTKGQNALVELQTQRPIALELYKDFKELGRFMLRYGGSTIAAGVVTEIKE
UniProt P32780: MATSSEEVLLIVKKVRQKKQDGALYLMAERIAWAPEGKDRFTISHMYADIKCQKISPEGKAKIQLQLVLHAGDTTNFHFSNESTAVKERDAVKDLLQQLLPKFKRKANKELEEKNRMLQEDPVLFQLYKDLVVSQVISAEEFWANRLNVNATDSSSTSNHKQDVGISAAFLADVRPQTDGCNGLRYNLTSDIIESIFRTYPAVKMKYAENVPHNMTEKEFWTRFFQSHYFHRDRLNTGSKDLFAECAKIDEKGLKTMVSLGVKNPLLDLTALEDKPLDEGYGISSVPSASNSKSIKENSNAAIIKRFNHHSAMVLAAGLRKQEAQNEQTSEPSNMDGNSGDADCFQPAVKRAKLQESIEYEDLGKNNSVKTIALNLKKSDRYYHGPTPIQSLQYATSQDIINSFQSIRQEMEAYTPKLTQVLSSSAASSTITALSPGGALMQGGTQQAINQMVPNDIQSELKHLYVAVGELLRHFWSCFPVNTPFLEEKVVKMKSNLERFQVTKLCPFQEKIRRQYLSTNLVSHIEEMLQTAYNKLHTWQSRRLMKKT
UniProt P78417: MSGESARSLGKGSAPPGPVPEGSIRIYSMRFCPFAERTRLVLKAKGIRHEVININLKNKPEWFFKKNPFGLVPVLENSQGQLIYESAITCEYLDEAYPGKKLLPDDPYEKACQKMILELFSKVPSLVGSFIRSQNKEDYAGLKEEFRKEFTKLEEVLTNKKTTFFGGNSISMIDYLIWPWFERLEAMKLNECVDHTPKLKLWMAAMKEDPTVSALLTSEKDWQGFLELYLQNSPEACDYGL
UniProt Q9H6D7: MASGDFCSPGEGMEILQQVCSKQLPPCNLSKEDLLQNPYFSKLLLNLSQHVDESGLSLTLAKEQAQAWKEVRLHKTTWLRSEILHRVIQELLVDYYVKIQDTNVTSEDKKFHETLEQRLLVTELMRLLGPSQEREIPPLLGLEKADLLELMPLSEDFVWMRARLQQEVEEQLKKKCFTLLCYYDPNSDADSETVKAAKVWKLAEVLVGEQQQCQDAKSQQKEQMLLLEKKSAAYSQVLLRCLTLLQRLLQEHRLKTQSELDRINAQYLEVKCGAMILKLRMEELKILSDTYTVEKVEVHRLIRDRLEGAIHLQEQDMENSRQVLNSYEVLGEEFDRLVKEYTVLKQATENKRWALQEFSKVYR
UniProt P28799: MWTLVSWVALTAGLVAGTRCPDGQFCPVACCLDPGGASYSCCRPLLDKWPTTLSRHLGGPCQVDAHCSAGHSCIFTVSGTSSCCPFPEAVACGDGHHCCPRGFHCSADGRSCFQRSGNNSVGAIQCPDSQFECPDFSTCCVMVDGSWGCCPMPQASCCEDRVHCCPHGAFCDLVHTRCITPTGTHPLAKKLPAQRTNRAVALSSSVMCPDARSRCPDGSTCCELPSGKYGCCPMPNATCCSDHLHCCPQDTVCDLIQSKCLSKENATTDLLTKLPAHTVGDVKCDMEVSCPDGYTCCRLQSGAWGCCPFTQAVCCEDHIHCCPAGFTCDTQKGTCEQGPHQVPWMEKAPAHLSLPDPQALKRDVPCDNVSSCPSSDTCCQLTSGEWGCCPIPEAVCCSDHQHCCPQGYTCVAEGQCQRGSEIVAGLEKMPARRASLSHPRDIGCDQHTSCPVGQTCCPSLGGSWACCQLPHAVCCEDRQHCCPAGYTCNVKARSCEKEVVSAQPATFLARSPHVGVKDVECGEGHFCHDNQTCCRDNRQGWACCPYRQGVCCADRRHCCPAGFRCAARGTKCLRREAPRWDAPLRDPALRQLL

| Target | probe-labelled cysteine peptide fold change (10 µM) | probe-labelled cysteine peptide fold change (50 µM) |
| --- | --- | --- |
| GSE1_Q14687_777_CVAEQPPLK (UniProt Q14687) | -0.258 | -0.204 |
| HARS_P12081_379_KVPCVGLSIGVER (UniProt P12081) | 0.0603 | 0.0623 |
| GSPT1_P15170_464_TAGTICLETFK (UniProt P15170) | 0.00954 | 0.0941 |
| HAUS3_Q68CZ6_123_CQLMASVTSHK (UniProt Q68CZ6) | 0.0577 | 0.0224 |
| GSS_P48637_422_VVQCISELGIFGVYVR (UniProt P48637) | 0.186 | 0.0454 |
| GSDMD_P57764_268_CLHNFLTDGVPAEGAFTEDFQGLR (UniProt P57764) | 0.567 | -0.805 |
| GSTM3_P21266_3_SCESSMVLGYWDIR (UniProt P21266) | -0.2 | -0.351 |
| GTF3C1_Q12789_1008_NAVIVDTTICDPHYNLAR (UniProt Q12789) | -0.0797 | 0.126 |
| GSTM3_P21266_39_YTCGEAPDYDR (UniProt P21266) | -0.0298 | 0.0205 |
| GSTM3_P21266_208_IAAYLQSDQFCK (UniProt P21266) | -0.461 | -0.326 |
| GSK3A_P49840_398_LSPLEACAHSFFDELR (UniProt P49840) | -0.105 | -0.0385 |
| GTF3C1_Q12789_317+320_LQEIHPECGPCK (UniProt Q12789) | -0.219 | -0.678 |
| GSDME_O60443_156_NEVLCVLTQK (UniProt O60443) | -0.0438 | -0.0317 |
| GYS1_P13807_564_SLDDSCSQLTSFLYSFCQQSR (UniProt P13807) | -0.199 | -0.242 |
| H2AFY_O75367_297_NCLALADDKK (UniProt O75367) | 0.106 | 0.0661 |
| GTPBP4_Q9BZE4_174_TLLLCGYPNVGK (UniProt Q9BZE4) | 0.0273 | 0.00405 |
| HAGHL_Q6PII5_170_VFCGHEHTLSNLEFAQK (UniProt Q6PII5) | -0.0319 | -0.114 |
| GSTCD_Q8NEC7_335_CGIQFLHLPK (UniProt Q8NEC7) | -0.0747 | -0.151 |
| GSK3B_P49841_317_TPPEAIALCSR (UniProt P49841) | -0.0812 | 0.0559 |
| HAUS8_Q9BT25_182_NLLIMCK (UniProt Q9BT25) | -0.126 | -0.141 |
| HBS1L_Q9Y450_84_LYSCLDHMR (UniProt Q9Y450) | 0.0793 | -0.0662 |
| GTF3C1_Q12789_42_VPPFPLPLEPCTQEFLWR (UniProt Q12789) | 0.155 | 0.236 |

| Target | probe-labelled cysteine peptide fold change (10 µM) | probe-labelled cysteine peptide fold change (50 µM) |
| --- | --- | --- |
| GTF2I_P78347_903_KITINPGCVVVDGMPPGVSFK (UniProt P78347) | 0.0985 | -0.408 |
| GTF2H1_P32780_246_DLFAECAK (UniProt P32780) | -0.095 | -0.337 |
| GTF3C1_Q12789_136_CTMVEAFDR (UniProt Q12789) | 0.0593 | -0.0506 |
| GSTO1_P78417_192_LNECVDHTPK (UniProt P78417) | 0.0376 | 0.0717 |
| HAUS4_Q9H6D7_213_LAEVLVGEQQQCQDAK (UniProt Q9H6D7) | -0.0337 | 0.0347 |
| GRAMD1A_Q96CP6_456_RGPQAGGCVVDSEVLTQGIPYQDYFYTAHR (UniProt Q96CP6) | -0.1 | -0.00633 |
| GSR_P00390_134_KVMWNTAVHSEFMHDHADYGFPSCEGK (UniProt P00390) | -0.0339 | -0.551 |
| GRHPR_Q9UBQ7_29_AADCEVEQWDSDEPIPAK (UniProt Q9UBQ7) | -0.563 | -0.167 |
| GRK2_P25098_154_QVPPDLFQPYIEEICQNLR (UniProt P25098) | 0.231 | 0.311 |
| GRN_P28799_558_HCCPAGFR (UniProt P28799) | -0.086 | -0.27 |
| GRK6_P43250_425_SLCSQLLCK (UniProt P43250) | -0.224 | -0.00244 |
| GSPT1_P15170_381_GIEEEEILPGFILCDPNNLCHSGR (UniProt P15170) | 0.527 | 0.422 |
| GRAMD1B_Q3KR37_460_ASQESECYVIDAEVLTHDVPYHDYFYTINR (UniProt Q3KR37) | -0.242 | 0.0555 |
| GRWD1_Q9BQ67_11_TCETGEPMEAESGDTSSEGPAQVYLPGR (UniProt Q9BQ67) | -0.0106 | -0.148 |
| HAUS6_Q7Z4H7_443_QHNQENGCR (UniProt Q7Z4H7) | -0.295 | -0.152 |
| HAUS4_Q9H6D7_272_CGAMILK (UniProt Q9H6D7) | 0.243 | 0.137 |
| GTF2B_Q00403_37_AGDMICPECGLVVGDR (UniProt Q00403) | 0.112 | 0.0725 |
| HBS1L_Q9Y450_491_LCVSDVFK (UniProt Q9Y450) | -0.00828 | 0.0622 |
| GTF3C2_Q8WUA4_608_LYPFQCFLAHDQAVR (UniProt Q8WUA4) | -0.104 | 0.0288 |
| GSPT1_P15170_453_FVKQDQVCIAR (UniProt P15170) | -0.29 | -0.5 |
| HARS2_P49590_274_IGDYVQCHGGVSLVEQMFQDPR (UniProt P49590) | -0.0884 | -0.182 |
